# Further values from the same series stand in other lists.
# Tested on: HEK293T nuclear lysates
# Experiment: SILAC‐based pull‐down proteomics H4K5me2/H4K5 (probes 7/5)
# Assay type: binding, human
# Conditions: for F6 log2 (H4K5me2/H4K5): run F6; for E6 log2 (H4K5me2/H4K5): run E6
substance,measurement,setting,value
probe 7: H4K5me2 peptide probe with photo‐arginine R(dz) and K(biotin) (SGRGKGGKGLGKGGK; photo-arginine R(dz) at 3; dimethyl-lysine at 5; K(biotin) at 15),F6 log2 (H4K5me2/H4K5),protein P50990 CCT8,0.3492
same,E6 log2 (H4K5me2/H4K5),protein P52701 MSH6,0.2964
same,F6 log2 (H4K5me2/H4K5),protein P52701 MSH6,0.1666
same,E6 log2 (H4K5me2/H4K5),protein P56545 CTBP2,0.3739
same,F6 log2 (H4K5me2/H4K5),protein P56545 CTBP2,0.4212
same,E6 log2 (H4K5me2/H4K5),protein P60174 TPI1,0.243
same,F6 log2 (H4K5me2/H4K5),protein P60174 TPI1,0.3241
same,E6 log2 (H4K5me2/H4K5),protein P60709 ACTB,0.2405
same,F6 log2 (H4K5me2/H4K5),protein P60709 ACTB,0.08858
same,E6 log2 (H4K5me2/H4K5),protein P60842 EIF4A1,0.348
same,F6 log2 (H4K5me2/H4K5),protein P60842 EIF4A1,0.4523
same,E6 log2 (H4K5me2/H4K5),protein P61978 HNRNPK,0.2874
same,F6 log2 (H4K5me2/H4K5),protein P61978 HNRNPK,0.2631
same,E6 log2 (H4K5me2/H4K5),protein P63104 YWHAZ,0.3421
same,F6 log2 (H4K5me2/H4K5),protein P63104 YWHAZ,0.02806
same,E6 log2 (H4K5me2/H4K5),protein P63241 EIF5A,0.2374
same,F6 log2 (H4K5me2/H4K5),protein P63241 EIF5A,0.1264
same,E6 log2 (H4K5me2/H4K5),protein P68366 TUBA4A,0.23
same,F6 log2 (H4K5me2/H4K5),protein P68366 TUBA4A,0.05704
same,E6 log2 (H4K5me2/H4K5),protein P78527 PRKDC,0.279
same,F6 log2 (H4K5me2/H4K5),protein P78527 PRKDC,0.2967
same,E6 log2 (H4K5me2/H4K5),protein Q1KMD3 HNRNPUL2,0.3577
same,F6 log2 (H4K5me2/H4K5),protein Q1KMD3 HNRNPUL2,0.1623
same,E6 log2 (H4K5me2/H4K5),protein Q5T760 SFRS11,0.3801
same,F6 log2 (H4K5me2/H4K5),protein Q5T760 SFRS11,0.2959
same,E6 log2 (H4K5me2/H4K5),protein Q8N1G2 FTSJD2,0.196
same,F6 log2 (H4K5me2/H4K5),protein Q8N1G2 FTSJD2,0.2886
same,E6 log2 (H4K5me2/H4K5),protein Q8N3X1 FNBP4,0.2598
same,F6 log2 (H4K5me2/H4K5),protein Q8N3X1 FNBP4,0.34
same,E6 log2 (H4K5me2/H4K5),protein Q8TAQ2 SMARCC2,0.2631
same,F6 log2 (H4K5me2/H4K5),protein Q8TAQ2 SMARCC2,0.08408
same,E6 log2 (H4K5me2/H4K5),protein Q9BSD7 NTPCR,0.278
same,F6 log2 (H4K5me2/H4K5),protein Q9BSD7 NTPCR,0.2018
same,E6 log2 (H4K5me2/H4K5),protein Q9BWF3 RBM4,0.3706
same,F6 log2 (H4K5me2/H4K5),protein Q9BWF3 RBM4,0.1463
same,E6 log2 (H4K5me2/H4K5),protein Q9C0J8 WDR33,0.2021
same,F6 log2 (H4K5me2/H4K5),protein Q9C0J8 WDR33,-0.3674
same,E6 log2 (H4K5me2/H4K5),protein Q9HB71 CACYBP,0.274
same,F6 log2 (H4K5me2/H4K5),protein Q9HB71 CACYBP,0.1197
same,E6 log2 (H4K5me2/H4K5),protein Q9HC35 EML4,0.293
same,F6 log2 (H4K5me2/H4K5),protein Q9HC35 EML4,0.4673
same,E6 log2 (H4K5me2/H4K5),protein Q9NQW6 ANLN,0.3075
same,F6 log2 (H4K5me2/H4K5),protein Q9NQW6 ANLN,0.626
same,E6 log2 (H4K5me2/H4K5),protein Q9NSD9 FARSB,0.3373
same,F6 log2 (H4K5me2/H4K5),protein Q9NSD9 FARSB,-0.2354
same,E6 log2 (H4K5me2/H4K5),protein Q9NW13 RBM28,0.2631
same,F6 log2 (H4K5me2/H4K5),protein Q9NW13 RBM28,-0.251
same,E6 log2 (H4K5me2/H4K5),protein Q9UBD5 ORC3,0.3325
same,F6 log2 (H4K5me2/H4K5),protein Q9UBD5 ORC3,0.2093
same,E6 log2 (H4K5me2/H4K5),protein Q9UHD1 CHORDC1,0.2778
same,F6 log2 (H4K5me2/H4K5),protein Q9UHD1 CHORDC1,0.09315
same,E6 log2 (H4K5me2/H4K5),protein Q9UKN8 GTF3C4,0.2915
same,F6 log2 (H4K5me2/H4K5),protein Q9UKN8 GTF3C4,0.4741
same,E6 log2 (H4K5me2/H4K5),protein Q9UQ80 PA2G4,0.3379
same,F6 log2 (H4K5me2/H4K5),protein Q9UQ80 PA2G4,0.3475
same,E6 log2 (H4K5me2/H4K5),protein Q9Y3I0 C22orf28,0.2896
same,F6 log2 (H4K5me2/H4K5),protein Q9Y3I0 C22orf28,0.3483
same,E6 log2 (H4K5me2/H4K5),protein Q9Y6W5 WASF2,0.2111
same,F6 log2 (H4K5me2/H4K5),protein Q9Y6W5 WASF2,0.1053
same,E6 log2 (H4K5me2/H4K5),protein Q9Y6X8 ZHX2,0.187
same,F6 log2 (H4K5me2/H4K5),protein Q9Y6X8 ZHX2,-0.2081
same,E6 log2 (H4K5me2/H4K5),protein Q9Y265 RUVBL1,0.1875
same,F6 log2 (H4K5me2/H4K5),protein Q9Y265 RUVBL1,-0.1779
same,E6 log2 (H4K5me2/H4K5),protein Q29RF7 PDS5A,0.2478
same,F6 log2 (H4K5me2/H4K5),protein Q29RF7 PDS5A,0.1704
same,E6 log2 (H4K5me2/H4K5),protein Q52LJ0-2 FAM98B,0.3677
same,F6 log2 (H4K5me2/H4K5),protein Q52LJ0-2 FAM98B,-0.205
same,E6 log2 (H4K5me2/H4K5),protein Q86UE8 TLK2,0.3586
same,F6 log2 (H4K5me2/H4K5),protein Q86UE8 TLK2,-0.4255
same,E6 log2 (H4K5me2/H4K5),protein Q96JB3 HIC2,0.2025
same,F6 log2 (H4K5me2/H4K5),protein Q96JB3 HIC2,0.2964
same,E6 log2 (H4K5me2/H4K5),protein Q96T88 UHRF1,0.2877
same,F6 log2 (H4K5me2/H4K5),protein Q96T88 UHRF1,0.06687
same,E6 log2 (H4K5me2/H4K5),protein Q07955 SRSF1,0.3266
same,F6 log2 (H4K5me2/H4K5),protein Q07955 SRSF1,0.005776
same,E6 log2 (H4K5me2/H4K5),protein Q08170 SRSF4,0.3831
same,F6 log2 (H4K5me2/H4K5),protein Q08170 SRSF4,-0.146
same,E6 log2 (H4K5me2/H4K5),protein Q10570 CPSF1,0.2478
same,F6 log2 (H4K5me2/H4K5),protein Q10570 CPSF1,0.1414
same,E6 log2 (H4K5me2/H4K5),protein Q12789 GTF3C1,0.209
same,F6 log2 (H4K5me2/H4K5),protein Q12789 GTF3C1,0.2928
same,E6 log2 (H4K5me2/H4K5),protein Q12996 CSTF3,0.2524
same,F6 log2 (H4K5me2/H4K5),protein Q12996 CSTF3,-0.3083
same,E6 log2 (H4K5me2/H4K5),protein Q13123 IK,0.2579
same,F6 log2 (H4K5me2/H4K5),protein Q13123 IK,0.2112
same,E6 log2 (H4K5me2/H4K5),protein Q13263 TRIM28,0.3148
same,F6 log2 (H4K5me2/H4K5),protein Q13263 TRIM28,0.2619
same,E6 log2 (H4K5me2/H4K5),protein Q14204 DYNC1H1,0.2946
same,F6 log2 (H4K5me2/H4K5),protein Q14204 DYNC1H1,0.3599
same,E6 log2 (H4K5me2/H4K5),protein Q14566 MCM6,0.274
same,F6 log2 (H4K5me2/H4K5),protein Q14566 MCM6,0.258
same,E6 log2 (H4K5me2/H4K5),protein Q14974 KPNB1,0.237
same,F6 log2 (H4K5me2/H4K5),protein Q14974 KPNB1,0.101
same,E6 log2 (H4K5me2/H4K5),protein Q15233 NONO,0.1849
same,F6 log2 (H4K5me2/H4K5),protein Q15233 NONO,0.2662
same,E6 log2 (H4K5me2/H4K5),protein Q15365 PCBP1,0.2125
same,F6 log2 (H4K5me2/H4K5),protein Q15365 PCBP1,0.1048
same,E6 log2 (H4K5me2/H4K5),protein Q15393 SF3B3,0.2478
same,F6 log2 (H4K5me2/H4K5),protein Q15393 SF3B3,0.1091
same,E6 log2 (H4K5me2/H4K5),protein Q15398 DLGAP5,0.1992
same,F6 log2 (H4K5me2/H4K5),protein Q15398 DLGAP5,0.1203
same,E6 log2 (H4K5me2/H4K5),protein Q16531 DDB1,0.3498
same,F6 log2 (H4K5me2/H4K5),protein Q16531 DDB1,0.212
same,E6 log2 (H4K5me2/H4K5),protein Q92541 RTF1,0.1798
same,F6 log2 (H4K5me2/H4K5),protein Q92541 RTF1,-0.05357
same,E6 log2 (H4K5me2/H4K5),protein Q92576 PHF3,0.2562
same,F6 log2 (H4K5me2/H4K5),protein Q92576 PHF3,0.4074
same,E6 log2 (H4K5me2/H4K5),protein Q92973 TNPO1,0.2351
same,F6 log2 (H4K5me2/H4K5),protein Q92973 TNPO1,0.2132
same,E6 log2 (H4K5me2/H4K5),protein Q99661 KIF2C,0.3767
same,F6 log2 (H4K5me2/H4K5),protein Q99661 KIF2C,0.2802
